Reference: patent US6020305A, “Treatment of stress-induced skin disease by corticotropin releasing hormone antagonists and skin mast cell degranulation inhibitors” (Kos Pharmaceuticals, Inc., priority 1996, dated 2000)

Test system: skin mast cells
Experiment: Effect of drug pretreatment on dye extravasation induced by CRH
Assay type: in vivo, rat
Settings: drug 10^-4 M
Protocol: 1. For extravasation experiments, male Sprague/Dawley rats, each weighing approximately 350 g (Taconic Farms, Germantown, N.Y.), were anesthetized with a single intraperitoneal injection of 0.5 ml ketamine and 0.5 ml xylazine (20 mg/ml each) and then injected intravenously with 0.1 ml of 1% Evan's blue 60 min prior to treatment.
3. The pretreatment solution, when appropriate, was drawn first in the syringe followed by CRH from which it was separated by an air bubble. The pretreatment solution was injected first and was allowed to remain in the skin for 1 min; the needle was then changed, the air bubble ejected and CRH was injected and allowed to stay in the skin for 5 min. The animal was then killed by asphyxiation over CO2 vapor and decapitated; the skin was removed, turned over and photographed.

CN(C)CCOC(c1ccccc1)c1ccccc1 [Diphenhydramine, diphenhydramine]
plasma extravasation by CRH after pretreatment (higher concentrations (>10^-6 M) of CRH): only partially inhibited
plasma extravasation by CRH after pretreatment (lower concentrations (<10^-8 M) of CRH): suppressed
